Results taken from patent publication US4179433A (Richter Gedeon Vegyeszeti Gyar Rt., priority 1977, dated 1979).

Test: general procedure: solution-phase peptide synthesis; pentafluorophenyl active esters (Boc-AA-OPFP), triethylamine
Details: for crude mass / crude yield: whole synthesis; for crude yield: scale of the general procedure 10 mmoles

## Boc-Arg(Tos)-Val-Tyr(Bzl)-Ile-His(Dnp)-Pro-Ile-ONB
  crude mass: 12.4 g
  crude yield: 80% of theoretical

## Boc-Arg(Tos)-Val-Tyr(Bzl)-Ile-His(Dnp)-Pro-Leu-ONB
  crude mass: 7.5 g
Related to the starting Boc-Pro-OPFP
  crude yield: 50%

## Boc-OAla-Arg(Tos)-Val-Tyr-Ile-His-Pro-Ile-OH
Coupling step
  step yield: 84%
